US8252936B2, “Insecticidal compounds” (Syngenta Crop Protection LLC, priority 2006, dated 2012)
Some of these results come from one statement about several compounds together. At least one structure is not confirmed: it was looked up by name or label, or the drawing left a doubt.

Columns and labels:
Assay type in all cases: in vivo
Heliothis virescens = Heliothis virescens (tobacco budworm) egg/artificial diet test; conditions: application rate 200 ppm (concentration in well 18 ppm), eggs 0-24 h old on artificial diet, 4 days; egg mortality, larval mortality, growth regulation
Plutella xylostella = Plutella xylostella (diamond back moth) artificial diet test; conditions: application rate 200 ppm (concentration in well 18 ppm), L2 larvae, 6 days, larval mortality, growth regulation
Spodoptera littoralis = Spodoptera littoralis (Egyptian cotton leafworm) leaf disc spray test; conditions: application rate 200 ppm, sprayed cotton leaf discs, L1 larvae, 3 days after treatment; mortality, feeding behaviour, growth regulation
Diabrotica balteata = Diabrotica balteata (corn root worm) artificial diet test; conditions: application rate 200 ppm (concentration in well 18 ppm), L2 larvae, 5 days, larval mortality, growth regulation
Aedes aegypti = conditions: application rate 2 ppm, L2 larvae with nutrition mixture, 2 days; mortality, growth inhibition

Compound	control of Heliothis virescens (Heliothis virescens)	control of Plutella xylostella (Plutella xylostella)	control of Spodoptera littoralis (Spodoptera littoralis)	control of Diabrotica balteata (Diabrotica balteata)	control of Aedes aegypti (Aedes aegypti)
Cc1cc(C(F)(C(F)(F)F)C(F)(F)F)cc(C)c1NC(=O)c1cc(NC(=O)c2ccccc2Cl)c(C)s1 [Compound G5]	at least 80%	at least 80%	at least 80%	at least 80%	
Cc1cc(C(F)(C(F)(F)F)C(F)(F)F)cc(C)c1NC(=O)c1cc(NC(=O)c2ccco2)c(Cl)s1 [Compound E7]	at least 80%		at least 80%		
Cc1cc(C(F)(C(F)(F)F)C(F)(F)F)cc(C)c1NC(=O)c1cc(NC(=O)c2ncc(C(F)(F)F)cc2Cl)c(C)s1 [Compound G10]	at least 80%	at least 80%	at least 80%	at least 80%	
CSc1ncccc1C(=O)Nc1csc(C(=O)Nc2c(C)cc(C(F)(C(F)(F)F)C(F)(F)F)cc2C)c1 [Compound C12]	at least 80%				
Cc1cc(C(F)(C(F)(F)F)C(F)(F)F)cc(C)c1NC(=O)c1cc(NC(=O)c2cc(C(F)(F)F)ccc2F)c(Br)s1 [Compound F19]	at least 80%				
Cc1cc(C(=O)Nc2cc(C(=O)Nc3c(C)cc(C(F)(C(F)(F)F)C(F)(F)F)cc3C)sc2C)n(C)n1 [Compound G21]	at least 80%	at least 80%	at least 80%		
Cc1cc(C(F)(C(F)(F)F)C(F)(F)F)cc(C)c1NC(=O)c1cc(NC(=O)c2ccc(Cl)nc2)c(C)s1 [Compound G14]	at least 80%	at least 80%	at least 80%	at least 80%	
Cc1cc(C(F)(C(F)(F)F)C(F)(F)F)cc(C)c1NC(=O)c1cc(NC(=O)c2cccc(F)c2F)c(Br)s1 [Compound F17]	at least 80%	at least 80%	at least 80%		
Cc1cc(C(F)(C(F)(F)F)C(F)(F)F)cc(C)c1NC(=O)c1cc(NC(=O)c2cccc(F)c2F)c(C)s1 [Compound G19]	at least 80%	at least 80%	at least 80%		
Cc1cc(C(F)(C(F)(F)F)C(F)(F)F)cc(C)c1NC(=O)c1csc(NC(=O)c2cc(F)c(F)c(Cl)c2F)c1 [Compound A38]	at least 80%				
CCc1cc(C(F)(C(F)(F)F)C(F)(F)F)cc(CC)c1NC(=O)c1csc(NC(=O)c2cccc(F)c2F)c1 [Compound A63]	at least 80%	at least 80%	at least 80%	at least 80%	
Cc1cc(C(F)(C(F)(F)F)C(F)(F)F)cc(C)c1NC(=O)c1cc(NC(=O)c2ccccc2Br)c(C)s1 [Compound G9]	at least 80%	at least 80%	at least 80%	at least 80%	
Cc1cc(C(F)(C(F)(F)F)C(F)(F)F)cc(C)c1NC(=O)c1cc(NC(=O)c2cc(C(F)(F)F)ccc2F)c(Cl)s1 [Compound E18]	at least 80%				
CCc1cc(C(F)(C(F)(F)F)C(F)(F)F)cc(CC)c1NC(=O)c1csc(NC(=O)c2snnc2C)c1 [Compound A62]				at least 80%	
Cc1cc(C(F)(C(F)(F)F)C(F)(F)F)cc(C)c1NC(=O)c1cc(NC(=O)c2snnc2C)c(Cl)s1 [Compound E15]	at least 80%	at least 80%	at least 80%		
Cc1cc(C(F)(C(F)(F)F)C(F)(F)F)cc(C)c1NC(=O)c1csc(NC(=O)c2ncoc2-c2ccccc2)c1 [Compound A17]					at least 80%
CCc1cc(C(F)(C(F)(F)F)C(F)(F)F)cc(CC)c1NC(=O)c1csc(NC(=O)c2ccc(F)c(C(F)(F)F)c2)c1 [Compound A56]				at least 80%	
Cc1cc(C(F)(C(F)(F)F)C(F)(F)F)cc(C)c1NC(=O)c1cc(NC(=O)c2snnc2C)c(Br)s1 [Compound F16]	at least 80%	at least 80%	at least 80%		
CCc1cc(C(F)(C(F)(F)F)C(F)(F)F)cc(CC)c1NC(=O)c1csc(NC(=O)c2ccccc2Cl)c1 [Compound A49]				at least 80%	
Cc1cc(C(F)(C(F)(F)F)C(F)(F)F)cc(C)c1NC(=O)c1cc(NC(=O)c2cccc(Cl)c2)c(C)s1 [Compound G4]	at least 80%	at least 80%	at least 80%	at least 80%	

Compound	control of Heliothis virescens (Heliothis virescens)	control of Plutella xylostella (Plutella xylostella)	control of Spodoptera littoralis (Spodoptera littoralis)	control of Diabrotica balteata (Diabrotica balteata)	control of Aedes aegypti (Aedes aegypti)
Cc1cc(C(F)(C(F)(F)F)C(F)(F)F)cc(C)c1NC(=O)c1cc(NC(=O)c2cccnc2Cl)c(C)s1 [Compound G1]	at least 80%	at least 80%	at least 80%	at least 80%	
Cc1cc(C(F)(C(F)(F)F)C(F)(F)F)cc(C)c1NC(=O)c1csc(NC(=O)c2c(-c3ccccc3)noc2C)c1 [Compound A11]					at least 80%
Cc1cc(C(F)(C(F)(F)F)C(F)(F)F)cc(C)c1NC(=O)c1csc(NC(=O)c2cc(C)n(C)c2C)c1 [Compound A15]	at least 80%				
Cc1cc(C(F)(C(F)(F)F)C(F)(F)F)cc(C)c1NC(=O)c1ccc(NC(=O)c2cccc(Cl)c2)s1 [Compound B4]	at least 80%				
Cc1cc(C(F)(C(F)(F)F)C(F)(F)F)cc(C)c1NC(=O)c1ccc(NC(=O)c2cncc(Br)c2)s1 [Compound B5]	at least 80%	at least 80%			
Cc1cc(C(F)(C(F)(F)F)C(F)(F)F)cc(C)c1NC(=O)c1cc(NC(=O)c2cncc(Br)c2)c(C)s1 [Compound G7]	at least 80%	at least 80%	at least 80%	at least 80%	
Cc1cc(C(F)(C(F)(F)F)C(F)(F)F)cc(C)c1NC(=O)c1cc(NC(=O)c2ccccc2Cl)c(Br)s1 [Compound F3]	at least 80%	at least 80%	at least 80%	at least 80%	
CCc1cc(C(F)(C(F)(F)F)C(F)(F)F)cc(CC)c1NC(=O)c1csc(NC(=O)c2cc(Cl)ccc2F)c1 [Compound A53]				at least 80%	
Cc1cc(C(F)(C(F)(F)F)C(F)(F)F)cc(C)c1NC(=O)c1cc(NC(=O)c2cccc(F)c2F)c(Cl)s1 [Compound E16]	at least 80%	at least 80%	at least 80%	at least 80%	
CCc1cc(C(F)(C(F)(F)F)C(F)(F)F)cc(CC)c1NC(=O)c1csc(NC(=O)c2cc(C(F)(F)F)ccc2F)c1 [Compound A65]				at least 80%	
Cc1cc(C(F)(C(F)(F)F)C(F)(F)F)cc(C)c1NC(=O)c1cc(NC(=O)c2ccccc2Cl)c(Cl)s1 [Compound E3]	at least 80%	at least 80%	at least 80%	at least 80%	
COc1ccc(C(=O)Nc2cc(C(=O)Nc3c(C)cc(C(F)(C(F)(F)F)C(F)(F)F)cc3C)cs2)cc1 [Compound A39]	at least 80%	at least 80%			
Cc1cc(C(F)(C(F)(F)F)C(F)(F)F)cc(C)c1NC(=O)c1cc(Br)c(NC(=O)c2ccco2)s1 [Compound D7]	at least 80%	at least 80%	at least 80%		
CSc1ncccc1C(=O)Nc1cc(C(=O)Nc2c(C)cc(C(F)(C(F)(F)F)C(F)(F)F)cc2C)sc1C [Compound G11]			at least 80%	at least 80%	
Cc1cc(C(F)(C(F)(F)F)C(F)(F)F)cc(C)c1NC(=O)c1cc(NC(=O)c2csnn2)c(C)s1 [Compound G22]	at least 80%		at least 80%		
Cc1cc(C(F)(C(F)(F)F)C(F)(F)F)cc(C)c1NC(=O)c1cc(NC(=O)c2ccnc(Cl)c2)c(C)s1 [Compound G6]	at least 80%	at least 80%	at least 80%	at least 80%	
Cc1cc(C(F)(C(F)(F)F)C(F)(F)F)cc(C)c1NC(=O)c1cc(NC(=O)c2ccco2)c(Br)s1 [Compound F7]	at least 80%		at least 80%		
Cc1cc(C(F)(C(F)(F)F)C(F)(F)F)cc(C)c1NC(=O)c1cc(NC(=O)c2ccc(Br)o2)c(C)s1 [Compound G8]	at least 80%	at least 80%	at least 80%		
Cc1cc(C(F)(C(F)(F)F)C(F)(F)F)cc(C)c1NC(=O)c1cc(NC(=O)c2ccc(Cl)s2)c(C)s1 [Compound G20]	at least 80%	at least 80%	at least 80%		
COc1ccccc1C(=O)Nc1sc(C(=O)Nc2c(C)cc(C(F)(C(F)(F)F)C(F)(F)F)cc2C)cc1Br [Compound D12]	at least 80%	at least 80%			
